“Also recorded” adds a separate entry of the source. At least one compound was matched to its structure with a doubt left.
How the values were obtained:
[1] = system: cisplatin induced ototoxicity (outer hair cell loss, ABR threshold shift); assay: Intracochlear administration of thiourea against cisplatin induced ototoxicity in the guinea pig; format: in vivo
[2] = system: therapeutic efficacy of cisplatin; conditions: thiourea given systemically; cited from earlier work

## NC(N)=S [thiourea]
[1]; intracochlear administration via mini-osmotic pump
  protection from cisplatin induced ototoxicity: prevented cisplatin-induced ototoxicity; also recorded: offers protection from cisplatin induced ototoxicity
[1]; thiourea 27 mg/mL via osmotic pump 0.5 μL/hour into left cochlea, cisplatin 8 mg/b.w. IV, five days after cisplatin, FIG. 1A
  OHC loss, thiourea treated ears compared to the untreated, right ears: significantly (p<0.05) lower OHC loss
[1]; thiourea 27 mg/mL via osmotic pump vs artificial perilymph, cisplatin 8 mg/b.w. IV, five days after cisplatin, FIG. 1A
  OHC loss, thiourea treated ears compared to the AP treated ears: significantly (p<0.05) less OHC loss
[1]; thiourea 27 mg/mL via osmotic pump, five days after cisplatin, FIG. 1B
  average threshold shift (ABR), thiourea vs AP group: did not differ between the groups
[2]
  effect on therapeutic efficacy of cisplatin: eliminates the therapeutic efficacy of cisplatin

— patent US20100215746A1, “PREVENTION OF CISPLATIN INDUCED DEAFNESS” (THE REGENTS OF THE UNIVERSITY OF MICHIGAN, priority 2002, published 2010)
